Results as given in publication PMC9352668.
No constants are given. Whether binding was seen depends on the method and setting. In cells and extracts the contact can be indirect. Some entries that bind do so weakly or less than the wild type.

By UniProt entry, the sequences of proteins in these tests, tags left out. Where a name states a change or a piece, a line headed by the entry shows the natural chain unless it says otherwise.
UniProt Q01094: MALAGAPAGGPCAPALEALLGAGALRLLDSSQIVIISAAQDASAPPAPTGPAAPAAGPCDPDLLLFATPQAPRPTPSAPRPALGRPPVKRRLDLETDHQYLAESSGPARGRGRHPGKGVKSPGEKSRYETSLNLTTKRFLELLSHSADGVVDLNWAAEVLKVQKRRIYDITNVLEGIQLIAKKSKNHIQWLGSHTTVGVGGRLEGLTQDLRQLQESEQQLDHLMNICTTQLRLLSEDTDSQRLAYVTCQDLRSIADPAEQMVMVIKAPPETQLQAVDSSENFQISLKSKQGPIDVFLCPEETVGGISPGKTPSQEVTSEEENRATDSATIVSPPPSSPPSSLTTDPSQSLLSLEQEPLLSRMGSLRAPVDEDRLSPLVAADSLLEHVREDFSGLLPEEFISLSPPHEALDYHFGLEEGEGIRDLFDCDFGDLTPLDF

Biological target: E2F transcription factor 1 (human (endogenous in PANC-1)) (UniProt Q01094)
Test: co-IP; PANC-1 cell lysates; anti-E2F1 antibody used for IP, IgG antibody as negative control, input as positive control; immunoblotting

B1: Zinc finger protein 655 (protein, UniProt Q8N720 1-491)
chain: MEEIPAQEAAGSPRVQFQSLETQSECLSPEPQFVQDTDMEQGLTGDGETREENKLLIPKQKISEEVHSYKVRVGRLKHDITQVPETREVYKSEDRLERLQEILRKFLYLEREFRQITISKETFTSEKNNECHEPEKSFSLDSTIDADQRVLRIQNTDDNDKYDMSFNQNSASGKHEHLNLTEDFQSSECKESLMDLSHLNKWESIPNTEKSYKCDVCGKIFHQSSALTRHQRIHTREKPYKCKECEKSFSQSSSLSRHKRIHTREKPYKCEASDKSCEASDKSCSPSSGIIQHKKIHTRAKSYKCSSCERVFSRSVHLTQHQKIHKEMPCKCTVCGSDFCHTSYLLEHQRVHHEEKAYEYDEYGLAYIKQQGIHFREKPYTCSECGKDFRLNSHLIQHQRIHTGEKAHECNECGKAFSQTSCLIQHHKMHRKEKSYECNEYEGSFSHSSDLILQQEVLTRQKAFDCDVWEKNSSQRAHLVQHQSIHTKENS
With B1 the binding was “binds”.
